In paper doi:10.1101/585497:
These are yes or no findings as the source states them, for the method shown. In cells and extracts the contact can be indirect. Here binding means that the protein was enriched with, or labelled near, the bait; the list need not be complete.

Chains of the proteins cited; added tags and fusions are not shown. Lines headed by an entry give the natural chain unless they say otherwise; changes in a name come on top.
UniProt P25963, whole entry, stated change not applied: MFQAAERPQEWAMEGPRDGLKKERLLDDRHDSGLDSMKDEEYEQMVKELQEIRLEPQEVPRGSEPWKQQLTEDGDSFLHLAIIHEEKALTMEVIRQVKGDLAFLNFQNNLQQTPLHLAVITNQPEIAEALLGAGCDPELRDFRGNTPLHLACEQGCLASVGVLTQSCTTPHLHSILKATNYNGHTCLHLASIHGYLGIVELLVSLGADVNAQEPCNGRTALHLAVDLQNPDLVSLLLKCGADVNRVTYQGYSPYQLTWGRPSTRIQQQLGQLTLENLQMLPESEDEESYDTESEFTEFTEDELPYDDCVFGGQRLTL

Target: HA-IκBα (pCMV4-3HA-IκBα) (UniProt P25963)
Assay: proximity labelling

Question: Which binding does the source give for “Nup153 (endogenous, HEK293T) (from UniProt P49790 1-1475)” here?
Answer: binds
